From the supplement of paper PMC10338343
± gives the standard deviation. The entries are a selection whose mix differs from that of the whole data set. Many entries were measured with a wide error.

System: MILI (PIWIL2) piRISC loaded with piRNA #1 (26 nt)
Assay: pre-steady-state target cleavage rate (min^-1); MIWI and MILI are mouse PIWI proteins and EfPiwi is from a freshwater sponge; tags in brackets are library labels; higher = faster piRNA-guided slicing of the target
Details: guide: piRNA #1 5'p-UGAGGUAGUAGGUUGUAUAGUAUCCA; auxiliary factor: 500 nM mouse GTSF1
Method in brief: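 The pre-steady-state cleavage rate came from a burst-and-steady-state fit to pooled data from three Cleave-'n-Seq trials, in which uncleaved targets were sequenced and normalised to depth and to weakly complementary targets. Each reaction held 0.1 nM transcribed, DNA-blocked target RNA library and 1 nM active affinity-purified piRISC carrying one synthetic guide, with or without 500 nM GTSF1 partner protein, in HEPES–potassium acetate buffer at 33 °C for 0–8 or 0–960 min. k3 was capped at 0.0001 min^-1.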

| Sequence | pre-steady-state target cleavage rate |
| --- | --- |
| GGAGACCUAUGAUAUGUUGCUAGUACCUGA | 0.00012 ± 0.032 |
| GGAGACGAAACUAUACAUCCUACUACCUCA | 0.255 ± 0.026 |
| GGAGACCUAUGAUAUGUACCUACUACCUCG [g2:g13:cont:t1G] | 0.000301 ± 0.0095 |
| GGAGACCAUACUAUACAACCUAACUACCUCA | 0.0248 ± 0.0049 |
| GGAGACCUAUGAAUACCAACCUACUACCUCA | 0.00269 ± 0.0026 |
| GGAGACGAUUCUAUACAACCUUCUACCUCA | 0.0216 ± 0.0072 |
| GGAGACCUAUGAUAUGAACCUAACUACCUCA | 0.000169 ± 0.018 |
| GGAGACCUAACUAUUCAACCUUCUACCUCA | 0.00422 ± 0.0049 |
| GGAGACCUAUGAUAUCAACCUAUACCUCA | 0.000107 ± 0.025 |
| GGAGACCUUACUAGACAACCUACUACCUCA | 0.155 ± 0.015 |
| GGAGUGGAUAUAUACAACCUACUACCUCA | 0.152 ± 0.01 |
| GGAGACCUAUGAAUUCAACCUACAACCUCA | 0.00204 ± 0.0029 |
| GGAGACCUAUGAUAUCAACGUACAACCUCA | 0.00109 ± 0.0057 |
| GGAGACGAUACUAUACAAGCUACAACCUCA | 0.211 ± 0.018 |
| GGAGACCUAUGAAUACAACCUACUUGGUCA | 0.000119 ± 0.019 |
| GGAGACCUAUGAAUUCAACCUACUACCUGA | 0.000304 ± 0.0093 |
| GGAGACCUUACUAUCAACCUACUACCUCA | 0.0728 ± 0.0079 |
| GGAGACCUAUGAUAUGAACCUACUGCCUCA | 0.00012 ± 0.022 |
| GGAGACCUAUGAUAUGUUCCAACAACCUCA | 0.000413 ± 0.01 |
| GGAGACGAUACUAUACAGACCUACUACCUCA | 0.00134 ± 0.0045 |

Taken from above:
Value of GGAGACCUAUGAAUUCAACCUACUACCUGA under pre-steady-state target cleavage rate: 0.000304 ± 0.0093
Value of GGAGACCAUACUAUACAACCUAACUACCUCA under pre-steady-state target cleavage rate: 0.0248 ± 0.0049

Continued.

| Sequence | pre-steady-state target cleavage rate |
| --- | --- |
| GGAGAGGAUACUAUACAACUUACUACCUCA | 0.0186 ± 0.0027 |
| GGAGAGGAUACUAUACACCCUACUACCUCA | 0.122 ± 0.015 |
| GGAGACCUAUGAUAUGUUGGUAGUUCCUCA | 0.000107 ± 0.02 |
| GGAGUGGAAACUAUACUACCUACUACCUCA | 0.193 ± 0.016 |
| GGAGACCUAUGAAUUCAUCCUACUACCUCA | 0.00131 ± 0.0042 |
| GGAGACGAACUAUACAACCUACUACCUCA | 0.138 ± 0.012 |
| GGAGACCUAUGAAUAGAACCUACAACCUCA | 0.000372 ± 0.0088 |
| GGAGACCUAUGAUAUCAAGCAACUACCUCA | 0.000299 ± 0.0095 |
| GGAGACCUAUGAUAUCUACCUACAACCUCA | 0.000385 ± 0.0076 |
| GGAGACCUAUGAUAUGAACCCUACUACCUCA | 0.000265 ± 0.01 |
| GGAGACCAUACUAUACAACCUACUACCCCA | 0.156 ± 0.024 |
| GGAGUGGAUACUAUACAAGCUACUACGUCA | 0.0651 ± 0.013 |
| GGAGACCUAUGAUAUCAACCUACUAGCUGA | 0.00076 ± 0.0057 |
| GGAGACCUAUGAUAUCAACCUGACUACCUCA | 0.00105 ± 0.0082 |
| GGAGACGAUACUAUACAACCUACUAGGUCA | 0.00206 ± 0.004 |
| GGAGACCUAUCUAUACAAGCUACUACCUGA | 0.125 ± 0.019 |
| GGAGACCUAUGAUUACUAACCUACUACCUCA | 0.000392 ± 0.0091 |
| GGAGACCUAUGAUAACAACCUAGUAGCUCA | 0.000134 ± 0.021 |
| GGAGACCUAUGAUAUGUACCAACUACCUGA | 0.000117 ± 0.014 |
